Assay results reported in PubChem BioAssay AID904 (National Center for Advancing Translational Sciences (NCATS), 2007).
The campaign covered roughly 55,000 compounds. About 530 (0.96%) were called active. Only results without a clear call are listed here; the source files them as inconclusive. Calls follow the shape of the dose curve; as a rule, active = well fitted cell-killing curve with a large enough effect; inconclusive = small, poorly fitted or top-dose-only effect; inactive = no such curve, though single readings can be large or run the other way. Some tests of the compounds listed are not included; inactive here does not mean inactive elsewhere.

Experiment: qHTS Screen for Compounds that Selectively Target Cancer Cells with p53 Mutations: Cytotoxicity of p53 Null Cells at the Nonpermissive Temperature; also: nearly all actives have a fitted effect of over 50% in size
Settings: H1299 p53-null (neo) cells, 39C, ATPlite viability, 24 h
Text: NIH Chemical Genomics Center [NCGC] NIH Molecular Libraries Screening Centers Network [MLSCN] MLSCN Grant: 1 X01 MH079844-01 Assay Submitter (PI): Dr. SUN, YI, University of Michigan NCGC Assay Overview: Synthetic Lethal Screen for Compounds to Kill Cancer Cells with p53 Mutation. Tumor suppressor gene p53 serves as a major cellular barrier against tumorigenesis. […] The goal of this screening is to identify small molecule probes that selectively kill cancer cells with mutations in p53. This screening was carried out using two lines of H1299 lung cancer cells. […] Concentration-responses of all the compounds in the library collection were determined in qHTS using the cell lines and temperature conditions as above.
NCGC Assay Protocol Summary: Both the H1299-p53A138V and H1299-neo cell lines were provided by Dr.Yi Sun, a PI at the University Michigan. […] AC50 values were determined from concentration-response data modeled with the standard Hill equation. […] Detection; Luminescence; Viewlux plate reader Keywords: p53, synthetic lethal, cancer, cell viability, cytotoxicity, H1299 cell line, luminescence, MLSMR, MLSCN, NIH Roadmap, qHTS, NCGC
Potency is read from the fitted curve at half-maximal effect.

Row | SMILES | Potency
1 | CCOc1cccc(C(=O)NCC2(N(C)C)CCCCC2)c1 | inconclusive: 0.631 µM
